# Assay results taken from the supplement of paper PMC8728848.
# The list shows a part of the results.
# Key:
# Test in all cases: glycan array binding signal (z-score within array); higher = stronger binding
# Conditions in all cases: glycan notation: IUPAC condensed, linker removed
# [1] = target: GlcNAc(b1-3)[GlcNAc(b1-6)]GalNAc
# Procedure, shortened: (§1)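 Glycan array data came from 3228 arrays in the Consortium for Functional Glycomics database, and only arrays with an available protein sequence were kept. Glycan names were put into IUPAC-condensed notation, and columns mapping to the same glycan were averaged. The binding signal is a within-array Z-score, averaged across arrays of one protein sequence run at different concentrations or buffers and across linkers. A negative Z-score can be read as non-binding.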
# [2] = target: GlcNAc(b1-4)Gal(b1-4)GlcNAc
# Procedure, shortened: as §1
# [3] = target: GlcNAc(b1-4)GlcNAc
# Procedure, shortened: as §1
# [4] = target: GlcNAc(b1-4)GlcNAc(b1-4)GlcNAc
# Procedure, shortened: as §1
# [5] = target: GlcNAc(b1-4)GlcNAc(b1-4)GlcNAc(b1-4)GlcNAc(b1-4)GlcNAc
# Procedure, shortened: as §1
# [6] = target: GlcNAc(b1-4)GlcNAc(b1-4)GlcNAc(b1-4)GlcNAc(b1-4)GlcNAc(b1-4)GlcNAc
# Procedure, shortened: as §1
# [7] = target: GlcNAc(b1-4)[GlcNAc(b1-6)]GalNAc
# Procedure, shortened: as §1
# [8] = target: GlcNAc(b1-6)Gal(b1-4)GlcNAc
# Procedure, shortened: as §1
# [9] = target: GlcNAc(b1-6)GalNAc
# Procedure, shortened: as §1
# [10] = target: GlcNAc3Prop(b1-4)GlcNAc
# Procedure, shortened: as §1
# [11] = target: GlcNAc6S(b1-3)Gal(b1-4)GlcNAc
# Procedure, shortened: as §1
# [12] = target: Kdn(a2-3)Gal(b1-3)GalNAc
# Procedure, shortened: as §1
# [13] = target: Kdn(a2-3)Gal(b1-3)GlcNAc
# Procedure, shortened: as §1
# [14] = target: Kdn(a2-3)Gal(b1-4)Glc
# Procedure, shortened: as §1
# [15] = target: Kdn(a2-3)Gal(b1-4)GlcNAc
# Procedure, shortened: as §1
# [16] = target: Kdn(a2-3)Gal(b1-4)[Fuc(a1-3)]GlcNAc
# Procedure, shortened: as §1
# [17] = target: Kdn(a2-6)Gal(b1-4)GlcNAc
# Procedure, shortened: as §1
# [18] = target: Man(a1-2)Man(a1-2)Man(a1-3)Man
# Procedure, shortened: as §1
# [19] = target: Man(a1-2)Man(a1-2)Man(a1-6)[Man(a1-3)]Man
# Procedure, shortened: as §1
# [20] = target: Man(a1-2)Man(a1-3)Man
# Procedure, shortened: as §1
# [21] = target: Man(a1-2)Man(a1-3)[Man(a1-2)Man(a1-6)]Man
# Procedure, shortened: as §1
# [22] = target: Man(a1-2)Man(a1-3)[Man(a1-2)Man(a1-6)]Man(a1-6)[Man(a1-2)Man(a1-2)Man(a1-3)]Man
# Procedure, shortened: as §1
# [23] = target: Man(a1-2)Man(a1-3)[Man(a1-2)Man(a1-6)]Man(a1-6)[Man(a1-2)Man(a1-2)Man(a1-3)]Man(b1-4)GlcNAc(b1-4)GlcNAc
# Procedure, shortened: as §1
# [24] = target: Man(a1-2)Man(a1-3)[Man(a1-6)]Man(a1-6)[Man(a1-2)Man(a1-3)]Man(b1-4)GlcNAc(b1-4)GlcNAc
# Procedure, shortened: as §1
# [25] = target: Man(a1-2)Man(a1-6)[Man(a1-3)]Man(a1-6)[Man(a1-2)Man(a1-2)Man(a1-3)]Man
# Procedure, shortened: as §1
# [26] = target: Man(a1-2)Man(a1-6)[Man(a1-3)]Man(a1-6)[Man(a1-2)Man(a1-2)Man(a1-3)]Man(b1-4)GlcNAc(b1-4)GlcNAc
# Procedure, shortened: as §1
# [27] = target: Man(a1-3)[Man(a1-6)]Man
# Procedure, shortened: as §1
# [28] = target: Man(a1-3)[Man(a1-6)]Man(a1-6)[Man(a1-2)Man(a1-3)]Man(b1-4)GlcNAc(b1-4)GlcNAc
# Procedure, shortened: as §1
# [29] = target: Man(a1-3)[Man(a1-6)]Man(a1-6)[Man(a1-3)]Man
# Procedure, shortened: as §1
# [30] = target: Man(a1-3)[Man(a1-6)]Man(a1-6)[Man(a1-3)]Man(b1-4)GlcNAc(b1-4)GlcNAc
# Procedure, shortened: as §1
# [31] = target: Man(a1-3)[Man(a1-6)]Man(b1-4)GlcNAc(b1-4)GlcNAc
# Procedure, shortened: as §1
# [32] = target: Man(a1-6)Man
# Procedure, shortened: as §1
# [33] = target: Man(b1-4)GlcNAc
# Procedure, shortened: as §1
# [34] = target: Neu5Ac(a2-3)Gal
# Procedure, shortened: as §1
# [35] = target: Neu5Ac(a2-3)Gal(b1-3)GalNAc
# Procedure, shortened: as §1
# [36] = target: Neu5Ac(a2-3)Gal(b1-3)GalNAc(b1-3)Gal(a1-4)Gal(b1-4)Glc
# Procedure, shortened: as §1
# [37] = target: Neu5Ac(a2-3)Gal(b1-3)GalNAc(b1-4)[Neu5Ac(a2-3)]Gal(b1-4)Glc
# Procedure, shortened: as §1
# [38] = target: Neu5Ac(a2-3)Gal(b1-3)GalNAc(b1-4)[Neu5Ac(a2-8)Neu5Ac(a2-3)]Gal(b1-4)Glc
# Procedure, shortened: as §1
binder,measurement,setting,value
"Layilin (Mus musculus), Q8C351 (protein) MQPGAALQAMLLAVLLAKPRDSKGRLLSASDLDPRGGQLVCRGGTRRPCYKVIYFHDAFQRLNFEEAKETCMEDGGQLVSIETEDEQRLIEKFIENLLASDGDFWIGLKRLEEKQSNNTACQDLYAWTDGSTSQFRNWYVDEPSCGSEVCVVMYHQPSAPPGIGGSYMFQWNDDRCNMKNNFICKYHDDKPSTTPSIWPGGEATEPATPLLPEETQKEDTKETFKERREAALNLAYILIPSIPLFLLLVVTSAVCWVWICRRKREQTDPSTKEQHTIWPTPRQENSPNLDVYNVIRKQSEADLAEPRPDLKNISFRVCSGEAMPDDMSCDYENIAVNPSESGFVTLASMESGFVTNDIYEFSPDRMGRSKESGWVENEIYY",glycan array binding signal (z-score),[1],-0.541
same,glycan array binding signal (z-score),[2],-0.705
same,glycan array binding signal (z-score),[3],0.261
same,glycan array binding signal (z-score),[4],-0.397
same,glycan array binding signal (z-score),[5],0.009
same,glycan array binding signal (z-score),[6],-0.593
same,glycan array binding signal (z-score),[7],-0.215
same,glycan array binding signal (z-score),[8],0.15
same,glycan array binding signal (z-score),[9],-0.344
same,glycan array binding signal (z-score),[10],-0.712
same,glycan array binding signal (z-score),[11],0.039
same,glycan array binding signal (z-score),[12],-0.958
same,glycan array binding signal (z-score),[13],-0.719
same,glycan array binding signal (z-score),[14],-0.761
same,glycan array binding signal (z-score),[15],1.94
same,glycan array binding signal (z-score),[16],-0.051
same,glycan array binding signal (z-score),[17],0.171
same,glycan array binding signal (z-score),[18],-0.78
same,glycan array binding signal (z-score),[19],-0.448
same,glycan array binding signal (z-score),[20],-0.607
same,glycan array binding signal (z-score),[21],0.857
same,glycan array binding signal (z-score),[22],-0.821
same,glycan array binding signal (z-score),[23],0.181
same,glycan array binding signal (z-score),[24],-0.059
same,glycan array binding signal (z-score),[25],-0.399
same,glycan array binding signal (z-score),[26],-0.764
same,glycan array binding signal (z-score),[27],-0.128
same,glycan array binding signal (z-score),[28],-0.624
same,glycan array binding signal (z-score),[29],-0.713
same,glycan array binding signal (z-score),[30],0.072
same,glycan array binding signal (z-score),[31],-0.043
same,glycan array binding signal (z-score),[32],-0.763
same,glycan array binding signal (z-score),[33],-0.401
same,glycan array binding signal (z-score),[34],-0.557
same,glycan array binding signal (z-score),[35],-0.199
same,glycan array binding signal (z-score),[36],-1.1
same,glycan array binding signal (z-score),[37],-0.717
same,glycan array binding signal (z-score),[38],0.054

# Two consecutive entries out of the list so far:
binder,measurement,setting,value
"Layilin (Mus musculus), Q8C351 (protein) MQPGAALQAMLLAVLLAKPRDSKGRLLSASDLDPRGGQLVCRGGTRRPCYKVIYFHDAFQRLNFEEAKETCMEDGGQLVSIETEDEQRLIEKFIENLLASDGDFWIGLKRLEEKQSNNTACQDLYAWTDGSTSQFRNWYVDEPSCGSEVCVVMYHQPSAPPGIGGSYMFQWNDDRCNMKNNFICKYHDDKPSTTPSIWPGGEATEPATPLLPEETQKEDTKETFKERREAALNLAYILIPSIPLFLLLVVTSAVCWVWICRRKREQTDPSTKEQHTIWPTPRQENSPNLDVYNVIRKQSEADLAEPRPDLKNISFRVCSGEAMPDDMSCDYENIAVNPSESGFVTLASMESGFVTNDIYEFSPDRMGRSKESGWVENEIYY",glycan array binding signal (z-score),[17],0.171
same,glycan array binding signal (z-score),[18],-0.78
